According to article PMC9278407, “Structure and regulation of the nuclear exosome targeting complex guides RNA substrates to the exosome” (Molecular Cell, 2022):
Results are given in words; binding and its absence hold for the method and conditions named. For some of these results: Binding seen in cells or lysates may run through a third protein. Some entries that bind do so weakly or less than the wild type. For some of these results: Tags and fused reporters may be left off the sequences shown.

T1: MYC-tagged ZCCHC8^1-707 (human) (UniProt Q6NZY4)
T1 sequence: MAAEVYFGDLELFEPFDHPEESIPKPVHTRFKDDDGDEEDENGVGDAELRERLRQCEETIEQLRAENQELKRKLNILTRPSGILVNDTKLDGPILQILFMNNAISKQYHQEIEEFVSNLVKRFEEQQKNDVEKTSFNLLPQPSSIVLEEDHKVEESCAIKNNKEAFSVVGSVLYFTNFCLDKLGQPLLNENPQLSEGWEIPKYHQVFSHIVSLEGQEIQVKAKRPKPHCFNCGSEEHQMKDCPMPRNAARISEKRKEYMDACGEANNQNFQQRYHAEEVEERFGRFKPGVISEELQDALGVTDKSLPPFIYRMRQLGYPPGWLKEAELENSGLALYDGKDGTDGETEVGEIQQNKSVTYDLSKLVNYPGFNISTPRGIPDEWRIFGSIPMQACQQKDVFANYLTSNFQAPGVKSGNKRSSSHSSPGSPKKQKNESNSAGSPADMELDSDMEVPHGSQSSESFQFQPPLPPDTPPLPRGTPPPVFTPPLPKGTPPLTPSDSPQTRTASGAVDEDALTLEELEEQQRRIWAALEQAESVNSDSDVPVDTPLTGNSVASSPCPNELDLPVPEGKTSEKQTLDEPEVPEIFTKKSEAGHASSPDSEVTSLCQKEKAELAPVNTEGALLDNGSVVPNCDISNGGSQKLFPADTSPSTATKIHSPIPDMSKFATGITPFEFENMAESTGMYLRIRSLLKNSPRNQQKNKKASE

T2: MYC-tagged ZCCHC8^177-707 (human) (UniProt Q6NZY4)
T2 sequence: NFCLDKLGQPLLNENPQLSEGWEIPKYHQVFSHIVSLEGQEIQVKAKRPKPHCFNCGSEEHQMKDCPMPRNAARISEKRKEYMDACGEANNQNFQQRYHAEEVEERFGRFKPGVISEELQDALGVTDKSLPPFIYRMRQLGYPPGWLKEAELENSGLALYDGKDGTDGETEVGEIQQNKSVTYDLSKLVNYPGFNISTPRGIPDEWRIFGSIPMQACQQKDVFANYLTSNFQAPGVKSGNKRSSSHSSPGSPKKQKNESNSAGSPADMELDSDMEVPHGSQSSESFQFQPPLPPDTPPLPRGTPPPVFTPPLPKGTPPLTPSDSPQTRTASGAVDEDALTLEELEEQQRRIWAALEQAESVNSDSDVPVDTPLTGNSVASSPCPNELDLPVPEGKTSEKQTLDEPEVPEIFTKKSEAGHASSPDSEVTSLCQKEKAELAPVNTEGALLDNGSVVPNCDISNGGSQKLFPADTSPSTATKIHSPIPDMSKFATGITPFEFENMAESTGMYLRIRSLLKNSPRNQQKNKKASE


How the values were obtained:
[1] = target: ZCCHC8 (residues 177-337) (human) (UniProt Q6NZY4); experiment: SEC; ZCCHC8 constructs with RBM7 present and MTR4 absent (Figure S3A); both purified
[2] = target: ZCCHC8 (residues 177-337) (human) (UniProt Q6NZY4); experiment: SEC; pre-assembled complexes of full-length MTR4, RBM7(RRM) and N-terminally truncated ZCCHC8 constructs ending at 337; Superdex 200 Increase 3.2/300; 20 mM Hepes-NaOH pH 7.5, 150 mM NaCl, 2 mM DTT; 300 pmol in 30 μL injected; peak fractions on SDS-PAGE; both purified
[3] = target: T1, MYC-tagged ZCCHC8^1-707 (human); experiment: co-IP; MYC antibody with Protein G Dynabeads from whole cell extract of HeLa:TIR1 ZCCHC8-3F-mAID cells, HT150 buffer (20 mM HEPES pH 7.4, 150 mM NaCl, 0.5% Triton X-100); cells mock treated or treated with auxin (IAA); western blot
[4] = target: T2, MYC-tagged ZCCHC8^177-707 (human); experiment: as above

binding [1]	binding [3]	binding [4]	Binder	binding [2]
no binding			ZCCHC8 (residues 177-337) (domain or fragment, human, UniProt Q6NZY4 177-337, looked up, source: E. coli BL21 Star (DE3) pRARE, co-expressed and co-purified with RBM7(1-98); not shown: His6, N-terminal, cleaved; GST, N-terminal, cleaved) NFCLDKLGQPLLNENPQLSEGWEIPKYHQVFSHIVSLEGQEIQVKAKRPKPHCFNCGSEEHQMKDCPMPRNAARISEKRKEYMDACGEANNQNFQQRYHAEEVEERFGRFKPGVISEELQDALGVTDKSLPPFIYRMRQLGYPPGWLKEAELENSGLALYD	no binding (tested: 30 μL containing 300 pmol injected)
	binds	no binding	endogenous ZCCHC8-3F-mAID (protein, UniProt Q6NZY4 1-707) MAAEVYFGDLELFEPFDHPEESIPKPVHTRFKDDDGDEEDENGVGDAELRERLRQCEETIEQLRAENQELKRKLNILTRPSGILVNDTKLDGPILQILFMNNAISKQYHQEIEEFVSNLVKRFEEQQKNDVEKTSFNLLPQPSSIVLEEDHKVEESCAIKNNKEAFSVVGSVLYFTNFCLDKLGQPLLNENPQLSEGWEIPKYHQVFSHIVSLEGQEIQVKAKRPKPHCFNCGSEEHQMKDCPMPRNAARISEKRKEYMDACGEANNQNFQQRYHAEEVEERFGRFKPGVISEELQDALGVTDKSLPPFIYRMRQLGYPPGWLKEAELENSGLALYDGKDGTDGETEVGEIQQNKSVTYDLSKLVNYPGFNISTPRGIPDEWRIFGSIPMQACQQKDVFANYLTSNFQAPGVKSGNKRSSSHSSPGSPKKQKNESNSAGSPADMELDSDMEVPHGSQSSESFQFQPPLPPDTPPLPRGTPPPVFTPPLPKGTPPLTPSDSPQTRTASGAVDEDALTLEELEEQQRRIWAALEQAESVNSDSDVPVDTPLTGNSVASSPCPNELDLPVPEGKTSEKQTLDEPEVPEIFTKKSEAGHASSPDSEVTSLCQKEKAELAPVNTEGALLDNGSVVPNCDISNGGSQKLFPADTSPSTATKIHSPIPDMSKFATGITPFEFENMAESTGMYLRIRSLLKNSPRNQQKNKKASE	
